Measured values from paper PMC3691238.

Chains of the proteins cited; added tags and fusions are not shown. Lines headed by an entry give the natural chain unless they say otherwise; changes in a name come on top. Residues count along the entry.
UniProt P27824, residues 21-592: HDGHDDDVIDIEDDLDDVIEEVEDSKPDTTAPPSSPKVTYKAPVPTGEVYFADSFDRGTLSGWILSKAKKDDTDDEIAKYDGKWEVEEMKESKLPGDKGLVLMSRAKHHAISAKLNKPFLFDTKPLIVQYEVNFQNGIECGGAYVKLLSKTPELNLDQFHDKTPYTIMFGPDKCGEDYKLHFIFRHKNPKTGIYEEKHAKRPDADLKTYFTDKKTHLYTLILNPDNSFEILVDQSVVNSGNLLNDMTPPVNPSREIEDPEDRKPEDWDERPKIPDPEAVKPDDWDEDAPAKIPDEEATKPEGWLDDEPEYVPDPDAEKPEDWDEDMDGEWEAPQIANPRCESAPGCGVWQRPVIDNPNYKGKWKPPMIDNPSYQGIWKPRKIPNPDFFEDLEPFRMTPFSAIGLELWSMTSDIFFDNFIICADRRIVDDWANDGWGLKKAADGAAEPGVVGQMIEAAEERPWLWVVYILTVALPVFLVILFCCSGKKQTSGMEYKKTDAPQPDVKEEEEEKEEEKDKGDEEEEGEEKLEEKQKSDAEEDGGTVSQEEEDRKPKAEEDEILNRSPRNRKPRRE
UniProt P30101, residues 25-505: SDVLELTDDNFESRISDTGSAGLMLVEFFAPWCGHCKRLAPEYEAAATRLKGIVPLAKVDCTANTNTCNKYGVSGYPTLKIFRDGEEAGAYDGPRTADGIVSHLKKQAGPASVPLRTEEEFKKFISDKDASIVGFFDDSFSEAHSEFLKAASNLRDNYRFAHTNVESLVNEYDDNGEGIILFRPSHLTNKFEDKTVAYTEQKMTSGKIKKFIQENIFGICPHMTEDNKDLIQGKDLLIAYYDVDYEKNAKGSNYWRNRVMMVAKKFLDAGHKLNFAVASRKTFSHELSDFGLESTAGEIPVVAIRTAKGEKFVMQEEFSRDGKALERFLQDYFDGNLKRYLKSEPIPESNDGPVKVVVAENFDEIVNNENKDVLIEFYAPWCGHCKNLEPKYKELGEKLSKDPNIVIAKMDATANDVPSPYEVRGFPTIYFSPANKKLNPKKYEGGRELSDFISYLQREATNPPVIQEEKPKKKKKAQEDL
UniProt P20848: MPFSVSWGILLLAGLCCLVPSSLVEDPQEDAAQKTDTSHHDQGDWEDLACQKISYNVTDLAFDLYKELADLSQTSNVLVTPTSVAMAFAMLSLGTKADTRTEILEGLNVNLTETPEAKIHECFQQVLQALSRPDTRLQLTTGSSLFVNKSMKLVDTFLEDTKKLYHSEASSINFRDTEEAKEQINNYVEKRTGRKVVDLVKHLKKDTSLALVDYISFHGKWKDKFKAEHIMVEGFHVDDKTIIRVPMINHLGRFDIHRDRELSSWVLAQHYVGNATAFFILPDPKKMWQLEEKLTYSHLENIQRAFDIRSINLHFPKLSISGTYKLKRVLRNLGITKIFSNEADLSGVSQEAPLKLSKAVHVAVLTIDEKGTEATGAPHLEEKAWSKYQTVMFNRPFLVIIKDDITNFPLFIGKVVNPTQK

How the values were obtained:
[1] = biological target: calnexin (CANX) (human (endogenous in HeLa)) (UniProt P27824); experiment: proximity ligation; HeLa cells stably expressing V5-tagged SERPINA2 or SERPINA1 variants, fixed in ice-cold methanol; antibodies against V5 and CANX or V5 and PDIA3; Duolink kit, rolling-circle amplification; spots per positive cell counted with Duolink image tool
[2] = biological target: Protein Disulfide-Isomerase A3 (PDIA3) (human (endogenous in HeLa)) (UniProt P30101); experiment: as above

Row | binding [1] | binding [2] | Substance
1 | binds | binds | SERPINA2 variant V1 (P308-K320), V5-tagged (from UniProt P20848)
2 | binds | binds | SERPINA2 variant V2 (L308-E320), V5-tagged (from UniProt P20848)
3 | binds | binds | SERPINA2 variant V3 (P308-E320), V5-tagged (from UniProt P20848)

Results are given in words; binding and its absence hold for the method and conditions named. In cells and extracts the contact can be indirect. Binding can be weak; no strength is given.
